US20190025321A1
Results are given in words; binding and its absence hold for the method and conditions named. For part of these data: Binding seen in cells or lysates may run through a third protein. Some entries that bind do so weakly or less than the wild type.

Chains of the proteins cited; added tags and fusions are not shown. Lines headed by an entry give the natural chain unless they say otherwise; changes in a name come on top.
UniProt Q9NXC5: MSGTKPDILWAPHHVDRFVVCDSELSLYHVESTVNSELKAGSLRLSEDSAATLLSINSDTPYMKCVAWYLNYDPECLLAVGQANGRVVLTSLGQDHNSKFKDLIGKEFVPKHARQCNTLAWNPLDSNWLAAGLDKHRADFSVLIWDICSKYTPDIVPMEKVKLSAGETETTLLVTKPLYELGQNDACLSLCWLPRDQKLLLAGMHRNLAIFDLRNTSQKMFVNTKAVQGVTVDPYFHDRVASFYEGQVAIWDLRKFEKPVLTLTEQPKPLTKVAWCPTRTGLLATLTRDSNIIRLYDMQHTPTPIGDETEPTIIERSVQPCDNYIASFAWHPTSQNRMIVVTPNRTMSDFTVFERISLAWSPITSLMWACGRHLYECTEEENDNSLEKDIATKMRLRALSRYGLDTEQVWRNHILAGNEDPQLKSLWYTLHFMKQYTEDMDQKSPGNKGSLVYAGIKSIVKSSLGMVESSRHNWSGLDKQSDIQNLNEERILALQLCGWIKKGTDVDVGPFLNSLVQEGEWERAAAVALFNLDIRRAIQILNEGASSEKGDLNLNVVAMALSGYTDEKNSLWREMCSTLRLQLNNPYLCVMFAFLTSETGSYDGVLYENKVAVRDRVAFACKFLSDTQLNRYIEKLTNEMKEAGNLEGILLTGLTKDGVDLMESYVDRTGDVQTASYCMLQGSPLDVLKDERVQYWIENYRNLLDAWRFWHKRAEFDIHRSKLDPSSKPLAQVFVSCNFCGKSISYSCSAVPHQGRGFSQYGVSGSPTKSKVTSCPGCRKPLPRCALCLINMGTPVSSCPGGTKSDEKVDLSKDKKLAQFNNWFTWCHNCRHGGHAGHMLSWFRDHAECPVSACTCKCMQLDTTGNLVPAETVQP
UniProt Q96S15: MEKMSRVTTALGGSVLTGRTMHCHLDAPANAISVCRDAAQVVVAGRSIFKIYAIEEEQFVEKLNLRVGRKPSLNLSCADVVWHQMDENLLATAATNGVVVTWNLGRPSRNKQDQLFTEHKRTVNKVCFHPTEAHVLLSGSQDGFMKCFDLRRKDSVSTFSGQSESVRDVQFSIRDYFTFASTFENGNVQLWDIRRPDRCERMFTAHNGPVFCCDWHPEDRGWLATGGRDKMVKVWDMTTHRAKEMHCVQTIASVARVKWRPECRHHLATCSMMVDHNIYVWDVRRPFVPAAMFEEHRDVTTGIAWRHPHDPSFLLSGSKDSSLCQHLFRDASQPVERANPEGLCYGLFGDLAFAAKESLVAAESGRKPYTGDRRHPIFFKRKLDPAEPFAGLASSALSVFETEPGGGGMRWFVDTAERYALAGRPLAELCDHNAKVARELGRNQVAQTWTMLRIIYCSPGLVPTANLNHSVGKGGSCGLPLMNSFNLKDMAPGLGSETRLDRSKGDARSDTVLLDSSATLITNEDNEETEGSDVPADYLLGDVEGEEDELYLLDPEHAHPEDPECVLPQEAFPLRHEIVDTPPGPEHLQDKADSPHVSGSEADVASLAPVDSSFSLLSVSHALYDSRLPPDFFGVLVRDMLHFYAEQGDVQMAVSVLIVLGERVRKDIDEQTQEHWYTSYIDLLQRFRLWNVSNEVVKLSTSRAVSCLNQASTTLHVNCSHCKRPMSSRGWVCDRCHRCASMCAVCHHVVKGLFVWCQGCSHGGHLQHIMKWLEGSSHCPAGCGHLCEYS
UniProt Q6PJI9: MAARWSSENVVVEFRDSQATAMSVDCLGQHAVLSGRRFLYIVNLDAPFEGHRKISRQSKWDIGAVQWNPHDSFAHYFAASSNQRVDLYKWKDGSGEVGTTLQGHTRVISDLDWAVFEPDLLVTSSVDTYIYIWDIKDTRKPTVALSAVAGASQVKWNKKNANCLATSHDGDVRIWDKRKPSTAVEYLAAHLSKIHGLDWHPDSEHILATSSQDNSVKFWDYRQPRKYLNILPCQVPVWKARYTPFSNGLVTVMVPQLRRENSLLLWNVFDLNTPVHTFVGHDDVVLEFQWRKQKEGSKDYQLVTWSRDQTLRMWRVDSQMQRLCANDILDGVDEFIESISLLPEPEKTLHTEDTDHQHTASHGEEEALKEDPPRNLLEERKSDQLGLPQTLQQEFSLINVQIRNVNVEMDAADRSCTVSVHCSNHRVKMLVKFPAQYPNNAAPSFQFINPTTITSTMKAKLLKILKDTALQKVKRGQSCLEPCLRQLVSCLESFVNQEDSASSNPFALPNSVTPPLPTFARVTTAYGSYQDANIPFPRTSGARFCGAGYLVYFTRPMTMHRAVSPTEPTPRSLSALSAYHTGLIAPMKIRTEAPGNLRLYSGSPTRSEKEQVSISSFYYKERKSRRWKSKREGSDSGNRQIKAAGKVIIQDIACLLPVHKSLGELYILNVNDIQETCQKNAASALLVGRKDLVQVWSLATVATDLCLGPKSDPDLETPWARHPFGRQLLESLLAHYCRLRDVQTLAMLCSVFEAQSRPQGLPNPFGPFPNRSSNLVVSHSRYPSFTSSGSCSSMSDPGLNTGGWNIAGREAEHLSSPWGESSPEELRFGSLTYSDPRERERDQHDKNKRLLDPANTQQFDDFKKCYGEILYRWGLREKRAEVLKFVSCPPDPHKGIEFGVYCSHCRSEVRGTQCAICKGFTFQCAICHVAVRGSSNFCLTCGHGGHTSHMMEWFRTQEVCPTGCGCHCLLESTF
UniProt P55735: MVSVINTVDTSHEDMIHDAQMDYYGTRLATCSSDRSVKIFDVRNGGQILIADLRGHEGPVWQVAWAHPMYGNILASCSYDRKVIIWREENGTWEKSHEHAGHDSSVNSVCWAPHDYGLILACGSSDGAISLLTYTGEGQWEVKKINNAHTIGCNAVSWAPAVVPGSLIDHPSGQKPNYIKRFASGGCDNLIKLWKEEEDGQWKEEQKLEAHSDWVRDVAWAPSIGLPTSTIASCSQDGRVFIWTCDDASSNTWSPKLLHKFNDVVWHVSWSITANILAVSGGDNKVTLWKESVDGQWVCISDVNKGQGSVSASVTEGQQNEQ
UniProt Q96EE3: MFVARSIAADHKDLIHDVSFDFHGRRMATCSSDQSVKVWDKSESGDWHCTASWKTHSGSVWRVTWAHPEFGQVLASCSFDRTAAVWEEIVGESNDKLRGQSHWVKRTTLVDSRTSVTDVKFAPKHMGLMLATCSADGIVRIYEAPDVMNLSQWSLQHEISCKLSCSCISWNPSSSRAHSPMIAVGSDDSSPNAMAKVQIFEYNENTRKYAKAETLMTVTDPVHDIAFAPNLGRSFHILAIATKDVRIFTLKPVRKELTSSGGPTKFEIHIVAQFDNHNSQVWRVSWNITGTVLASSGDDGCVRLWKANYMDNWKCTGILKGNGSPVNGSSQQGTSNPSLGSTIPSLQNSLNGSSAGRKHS

What was measured:
[1] = target: T1, endogenous GATOR2 complex (Seh1L, WDR59, WDR24, Sec13 and Mios) (human) (UniProt Q9NXC5+Q96S15+Q6PJI9+P55735+Q96EE3); assay: co-immunoprecipitation, HEK-293T cells (FIGS. 3A and 3B, FIG. 9B, FIG. 9C)
[2] = target: T1, endogenous GATOR2 complex (Seh1L, WDR59, WDR24, Sec13 and Mios) (human); assay: co-immunoprecipitation, anti-HA IP from HEK-293T cells starved of amino acids 50 min (-) or restimulated 10 min (+), immunoblot for endogenous mios and WDR24
[3] = target: T1, endogenous GATOR2 complex (Seh1L, WDR59, WDR24, Sec13 and Mios) (human); assay: anti-HA co-immunoprecipitation, HEK-293T cells (FIG. 3A)
[4] = target: T1, endogenous GATOR2 complex (Seh1L, WDR59, WDR24, Sec13 and Mios) (human); assay: anti-HA co-immunoprecipitation from CASTOR1-depleted HEK-293T cells (FIG. 9C)
[5] = target: complete GATOR2 complex, recombinant (WDR24-FLAG, WDR59, mios, sec13, seh1L co-expressed) (UniProt Q96S15); assay: co-immunoprecipitation, anti-HA IP of recombinant GATOR2 (here WDR59-HA, WDR24, mios, sec13, seh1L) from HEK-293T lines with Cas9 and the named guide RNAs, starved of or restimulated with amino acids; blot labelled CASTOR2 without a tag
[6] = target: T1, endogenous GATOR2 complex (Seh1L, WDR59, WDR24, Sec13 and Mios) (human); assay: immunoprecipitation with an anti-WDR24 antibody (anti-GSK3β as control), HEK-293T cells (FIG. 9B)
[7] = target: T1, endogenous GATOR2 complex (Seh1L, WDR59, WDR24, Sec13 and Mios) (human); assay: anti-FLAG immunoprecipitation from HEK-293T cells with endogenously FLAG-tagged WDR59 (FIG. 3B)
[8] = target: T1, endogenous GATOR2 complex (Seh1L, WDR59, WDR24, Sec13 and Mios) (human); assay: co-immunoprecipitation of endogenous proteins, IP with an anti-WDR24 antibody from HEK-293T cells starved of or restimulated with amino acids
[9] = target: T1, endogenous GATOR2 complex (Seh1L, WDR59, WDR24, Sec13 and Mios) (human); assay: co-immunoprecipitation, anti-FLAG IP of GATOR2 from a HEK-293T line with endogenously FLAG-tagged WDR59, immunoblot for endogenous CASTOR2

Measured: binding

B1: CASTOR2 homodimer (protein, human, not shown: small tags and cut ends)
chain 1: MELHILEHRLQVASVAKESIPLFTYGLIKLAFLSSKTRCKFFSLTETPEDYTIIVDEEGFLELPSSEHLSVADATWLALNVVSGGGSFSSSQPIGVTKIAKSVIAPLADQNISVFMLSTYQTDFILVRERDLPFVTHTLSSEFTILRVVNGETVAAENLGITNGFVKPKLVQRPVIHPLSSPSNRFCVTSLDPDTLPAVATLLMDVMFYSNGVKDPMATGDDCGHIRFFSFSLIEGYISLVMDVQTQQRFPSNLLFTSASGELWKMVRIGGQPLGFDECGIVAQISEPLAAADIPAYYISTFKFDHALVPEENINGVISALKVSQAEKH
chain 2: B1 chain 1
binds: [1] | [2] | [3] | [4]

B2: endogenous CASTOR2 (protein, human, UniProt A6NHX0 1-329, looked up)
chain: B1 chain 1
binds: [5] | [6] | [7] | [8] | [9]
